Data from publication PMC7464140, “Cooperative Regulation of Campylobacter jejuni Heat-Shock Genes by HspR and HrcA” (Microorganisms, 2020).
For at least one entry, the source does not settle the construct or the ends of the probe.

Key:
[1] = target: His-HrcA (Campylobacter jejuni) (UniProt Q9PPG2); experiment: DNase I footprinting; settings: 5 mM Tris-HCl pH 8.0, 60 mM NaCl, 5 mM KCl, 5 mM MgCl2, 0.2 mM DTT, 0.01% NP-40, 10% glycerol, 200 ng salmon sperm DNA in 50 uL, room temperature, 15 min, recombinant protein, residues 1-264, protein details: N-terminal 6xHis (pET15b), label: 5'-32P, probe letters rebuilt from the primers and the genome, part of a longer molecule
[2] = target: His-HspR (Campylobacter jejuni) (UniProt Q0P926); experiment: DNase I footprinting; settings: 5 mM Tris-HCl pH 8.0, 60 mM NaCl, 5 mM KCl, 5 mM MgCl2, 0.2 mM DTT, 0.01% NP-40, 10% glycerol, 200 ng salmon sperm DNA in 50 uL, room temperature, 15 min, recombinant protein, protein details: N-terminal 6xHis (pET15b), label: 5'-32P, probe letters rebuilt from the primers and the genome, part of a longer …

Sequence | binding result ([1]; 0-360 nM HrcA) | binding result ([2]; 0-180 nM HspR) | binding result ([1]; with 360 nM HspR prebound, footprint enhanced vs 360 nM GST control (cooperative)) | binding result ([2]; with 360 nM HrcA prebound, footprint enhanced vs 360 nM GST control (cooperative)) | binding result ([2]; protection from 22 nM HspR (-20 to -55), second region at higher HspR)
CCAATAGGTGCATTATCCAAAAGATAAGTTTGAATAATAGACTCTAAAATCAAATCCTTTTTATCTCGACTTTTCATCATATTTTCCTTCATATCTAGCACTCTATTTTTTGATTGCTAGATATATTATACAACATTGAGTGTTATTTTGTCAAGTATAAATATAAAAAAATATACTTAATTTTATTTAGTCAATATGACTAAAGTTTTATTAGTTACTTTTTTATAAGGATAAGCTATCTTTTAAGATTGAAAATGCAATGATAAAAATAAGATGAAAATTTTAAATTGAATTGATTGTCTAGTTTTTTAAAGGTATAAGATATTAAAATAAAAAACCAAAGAAGCCTTTGAAAGCTCTTTGGTTCTTCTATCAAAGCTTAAAAGTTACCATTGATAGAAATATACATTCTTCTTCCTTC (double strand) [Phrc] | binds | binds |  |  | 
CGCGTTTAACTAGAACACGCTTTCCTAAAGGTTGAAAATTCATTTTTGTCCATCCTTAAAAATATTGATTTTAGCACTCTTTAATTTAGAGTGATAATATCATACTATAAAAAATGAATTTTGTCAATACTTTAAATTAAAATATTTATAAAAGTTTAGTTTTATAGACTAAAGTTATTTTATAAAATAAACTAAAGGATAAAAATGAAAAAGATTTTTTATGGCATTGTAGCTTTTGTTGTTGTGC (double strand) [Pgro] | binds | binds | binds | binds | 
CTTGCAGCAAATAAAGCACTTGCTAAACTTAATGATAAAAAAATCTTTTTCATTTCATTTCCTTTTGTTCTTAAAGATAAATTATCTCGTAAAATATTTTACTGTCTTCATAGTATAAAACCGAAAATTTACAAAATTGTAAATAAAACCTTGAGTGATAAAAATTTATAAAACTTGATTGACTTAGGCTAAAGTTTATGTTATAATTTAATCCTCTATATAATCAAGTAAAAATTTTTAAGGAAATATAACATGAATAGTTTATACGAAACTCTTGGAGTTAGC (double strand) [Pcbp] |  |  |  |  | binds
GATATTCAAAGTATAGAAGAATTAAACAAGGCTATAGATATGTTTATGAAATAATCTAAAATTAGTCATTTGTCCTATTATTTAAAAAATTTTACTCAATTAACTTGACATTATATGACTAAAGTTATATAATAGCAAGTCTATAAACTAAATAAAGGATAAAACATGGCAAATATACAAGATTTTTTAACTGATAATATGC (double strand) [Pclp] |  | binds |  |  | 
